According to article PMC9105235:

B1: ZBTB14 (protein, UniProt O43829 1-449)
chain: MEFFISMSETIKYNDDDHKTLFLKTLNEQRLEGEFCDIAIVVEDVKFRAHRCVLAACSTYFKKLFKKLEVDSSSVIEIDFLRSDIFEEVLNYMYTAKISVKKEDVNLMMSSGQILGIRFLDKLCSQKRDVSSPDENNGQSKSKYCLKINRPIGDAADTQDDDVEEIGDQDDSPSDDTVEGTPPSQEDGKSPTTTLRVQEAILKELGSEEVRKVNCYGQEVESMETPESKDLGSQTPQALTFNDGMSEVKDEQTPGWTTAASDMKFEYLLYGHHREQIACQACGKTFSDEGRLRKHEKLHTADRPFVCEMCTKGFTTQAHLKEHLKIHTGYKPYSCEVCGKSFIRAPDLKKHERVHSNERPFACHMCDKAFKHKSHLKDHERRHRGEKPFVCGSCTKAFAKASDLKRHENNMHSERKQVTPSAIQSETEQLQAAAMAAEAEQQLETIACS
B2: KLHL5 (protein, UniProt Q96PQ7 1-755)
chain: MNVIYFPLHIFVVYSRAYTSLVLVGCTNLCAVLFARCLDDHLVSLRMSGSRKEFDVKQILKIRWRWFGHQASSPNSTVDSQQGEFWNRGQTGANGGRKFLDPCSLQLPLASIGYRRSSQLDFQNSPSWPMASTSEVPAFEFTAEDCGGAHWLDRPEVDDGTSEEENESDSSSCRTSNSSQTLSSCHTMEPCTSDEFFQALNHAEQTFKKMENYLRHKQLCDVILVAGDRRIPAHRLVLSSVSDYFAAMFTNDVREARQEEIKMEGVEPNSLWSLIQYAYTGRLELKEDNIECLLSTACLLQLSQVVEACCKFLMKQLHPSNCLGIRSFADAQGCTDLHKVAHNYTMEHFMEVIRNQEFVLLPASEIAKLLASDDMNIPNEETILNALLTWVRHDLEQRRKDLSKLLAYIRLPLLAPQFLADMENNVLFRDDIECQKLIMEAMKYHLLPERRPMLQSPRTKPRKSTVGTLFAVGGMDSTKGATSIEKYDLRTNMWTPVANMNGRRLQFGVAVLDDKLYVVGGRDGLKTLNTVECYNPKTKTWSVMPPMSTHRHGLGVAVLEGPMYAVGGHDGWSYLNTVERWDPQARQWNFVATMSTPRSTVGVAVLSGKLYAVGGRDGSSCLKSVECFDPHTNKWTLCAQMSKRRGGVGVTTWNGLLYAIGGHDAPASNLTSRLSDCVERYDPKTDMWTAVASMSISRDAVGVCLLGDKLYAVGGYDGQAYLNTVEAYDPQTNEWTQVAPLCLGRAGACVVTVKL
B3: KLHL24 (protein, UniProt Q6TFL4 1-600)
chain: MVLILGRRLNREDLGVRDSPATKRKVFEMDPKSLTGHEFFDFSSGSSHAENILQIFNEFRDSRLFTDVIICVEGKEFPCHRAVLSACSSYFRAMFCNDHRESREMLVEINGILAEAMECFLQYVYTGKVKITTENVQYLFETSSLFQISVLRDACAKFLEEQLDPCNCLGIQRFADTHSLKTLFTKCKNFALQTFEDVSQHEEFLELDKDELIDYICSDELVIGKEEMVFEAVMRWVYRAVDLRRPLLHELLTHVRLPLLHPNYFVQTVEVDQLIQNSPECYQLLHEARRYHILGNEMMSPRTRPRRSTGYSEVIVVVGGCERVGGFNLPYTECYDPVTGEWKSLAKLPEFTKSEYAVCALRNDILVSGGRINSRDVWIYNSQLNIWIRVASLNKGRWRHKMAVLLGKVYVVGGYDGQNRLSSVECYDSFSNRWTEVAPLKEAVSSPAVTSCVGKLFVIGGGPDDNTCSDKVQSYDPETNSWLLRAAIPIAKRCITAVSLNNLIYVAGGLTKAIYCYDPVEDYWMHVQNTFSRQENCGMSVCNGKIYILGGRRENGEATDTILCYDPATSIITGVAAMPRPVSYHGCVTIHRYNEKCFKL
B4: ZBTB10 (protein, UniProt Q96DT7 1-871)
chain: MSFSEMNRRTLAFRGGGLVTASGGGSTNNNAGGEASAWPPQPQPRQPPPPAPPALQPPNGRGADEEVELEGLEPQDLEASAGPAAGAAEEAKELLLPQDAGGPTSLGGGAGGPLLAERNRRTLAFRGGGGGGLGNNGSSRGRPETSVWPLRHFNGRGPATVDLELDALEGKELMQDGASLSDSTEDEEEGASLGDGSGAEGGSCSSSRRSGGDGGDEVEGSGVGAGEGETVQHFPLARPKSLMQKLQCSFQTSWLKDFPWLRYSKDTGLMSCGWCQKTPADGGSVDLPPVGHDELSRGTRNYKKTLLLRHHVSTEHKLHEANAQESEIPSEEGYCDFNSRPNENSYCYQLLRQLNEQRKKGILCDVSIVVSGKIFKAHKNILVAGSRFFKTLYCFSNKESPNQNNTTHLDIAAVQGFSVILDFLYSGNLVLTSQNAIEVMTVASYLQMSEVVQTCRNFIKDALNISIKSEAPESVVVDYNNRKPVNRDGLSSSRDQKIASFWATRNLTNLASNVKIENDGCNVDEGQIENYQMNDSSWVQDGSPEMAENESEGQTKVFIWNNMGSQGIQETGKTRRKNQTTKRFIYNIPPNNETNLEDCSVMQPPVAYPEENTLLIKEEPDLDGALLSGPDGDRNVNANLLAEAGTSQDGGDAGTSHDFKYGLMPGPSNDFKYGLIPGTSNDFKYGLIPGASNDFKYGLLPESWPKQETWENGESSLIMNKLKCPHCSYVAKYRRTLKRHLLIHTGVRSFSCDICGKLFTRREHVKRHSLVHKKDKKYKCMVCKKIFMLAASVGIRHGSRRYGVCVDCADKSQPGGQEGVDQGQDTEFPRDEEYEENEVGEADEELVDDGEDQNDPSRWDESGEVCMSLDD
B5: KLHL28 (protein, UniProt Q9NXS3 1-571)
chain: MDHTSPTYMLANLTHLHSEQLLQGLNLLRQHHELCDIILRVGDVKIHAHKVVLASVSPYFKAMFTGNLSEKENSEVEFQCIDETALQAIVEYAYTGTVFISQDTVESLLPAANLLQIKLVLKECCAFLESQLDPGNCIGISRFAETYGCRDLYLAATKYICQNFEAVCQTEEFFELTHADLDEIVSNDCLNVATEETVFYALESWIKYDVQERQKYLAQLLNSVRLPLLSVKFLTRLYEANHLIRDDRTCKHLLNEALKYHFMPEHRLSHQTVLMTRPRCAPKVLCAVGGKSGLFACLDSVEMYFPQNDSWIGLAPLNIPRYEFGICVLDQKVYVIGGIATNVRPGVTIRKHENSVECWNPDTNTWTSLERMNESRSTLGVVVLAGELYALGGYDGQSYLQSVEKYIPKIRKWQPVAPMTTTRSCFAAAVLDGMIYAIGGYGPAHMNSVERYDPSKDSWEMVASMADKRIHFGVGVMLGFIFVVGGHNGVSHLSSIERYDPHQNQWTVCRPMKEPRTGVGAAVIDNYLYVVGGHSGSSYLNTVQKYDPISDTWLDSAGMIYCRCNFGLTAL
B6: ZBTB1 (protein, UniProt Q9Y2K1 1-713)
chain: MAKPSHSSYVLQQLNNQREWGFLCDCCIAIDDIYFQAHKAVLAACSSYFRMFFMNHQHSTAQLNLSNMKISAECFDLILQFMYLGKIMTAPSSFEQFKVAMNYLQLYNVPDCLEDIQDADCSSSKCSSSASSKQNSKMIFGVRMYEDTVARNGNEANRWCAEPSSTVNTPHNREADEESLQLGNFPEPLFDVCKKSSVSKLSTPKERVSRRFGRSFTCDSCGFGFSCEKLLDEHVLTCTNRHLYQNTRSYHRIVDIRDGKDSNIKAEFGEKDSSKTFSAQTDKYRGDTSQAADDSASTTGSRKSSTVESEIASEEKSRAAERKRIIIKMEPEDIPTDELKDFNIIKVTDKDCNESTDNDELEDEPEEPFYRYYVEEDVSIKKSGRKTLKPRMSVSADERGGLENMRPPNNSSPVQEDAENASCELCGLTITEEDLSSHYLAKHIENICACGKCGQILVKGRQLQEHAQRCGEPQDLTMNGLGNTEEKMDLEENPDEQSEIRDMFVEMLDDFRDNHYQINSIQKKQLFKHSACPFRCPNCGQRFETENLVVEHMSSCLDQDMFKSAIMEENERDHRRKHFCNLCGKGFYQRCHLREHYTVHTKEKQFVCQTCGKQFLRERQLRLHNDMHKGMARYVCSICDQGNFRKHDHVRHMISHLSAGETICQVCFQIFPNNEQLEQHMDVHLYTCGICGAKFNLRKDMRSHYNAKHLKRT
B7: BTBD1 (protein, UniProt Q9H0C5 1-482)
chain: MASLGPAAAGEQASGAEAEPGPAGPPPPPSPSSLGPLLPLQREPLYNWQATKASLKERFAFLFNSELLSDVRFVLGKGRGAAAAGGPQRIPAHRFVLAAGSAVFDAMFNGGMATTSAEIELPDVEPAAFLALLRFLYSDEVQIGPETVMTTLYTAKKYAVPALEAHCVEFLTKHLRADNAFMLLTQARLFDEPQLASLCLDTIDKSTMDAISAEGFTDIDIDTLCAVLERDTLSIRESRLFGAVVRWAEAECQRQQLPVTFGNKQKVLGKALSLIRFPLMTIEEFAAGPAQSGILSDREVVNLFLHFTVNPKPRVEYIDRPRCCLRGKECCINRFQQVESRWGYSGTSDRIRFTVNRRISIVGFGLYGSIHGPTDYQVNIQIIEYEKKQTLGQNDTGFSCDGTANTFRVMFKEPIEILPNVCYTACATLKGPDSHYGTKGLKKVVHETPAASKTVFFFFSSPGNNNGTSIEDGQIPEIIFYT
B8: ZBTB21 (protein, UniProt Q9ULJ3 1-1066)
chain: MEGLLHYINPAHAISLLSALNEERLKGQLCDVLLIVGDQKFRAHKNVLAASSEYFQSLFTNKENESQTVFQLDFCEPDAFDNVLNYIYSSSLFVEKSSLAAVQELGYSLGISFLTNIVSKTPQAPFPTCPNRKKVFVEDDENSSQKRSVIVCQSRNEAQGKTVSQNQPDVSHTSRPSPSIAVKANTNKPHVPKPIEPLHNLSLTEKSWPKDSSVVYAKSLEHSGSLDDPNRISLVKRNAVLPSKPLQDREAMDDKPGVSGQLPKGKALELALKRPRPPVLSVCSSSETPYLLKETNKGNGQGEDRNLLYYSKLGLVIPSSGSGSGNQSIDRSGPLVKSLLRRSLSMDSQVPVYSPSIDLKSSQGSSSVSSDAPGNVLCALSQKSSLKDCSEKTALDDRPQVLQPHRLRSFSASQSTDREGASPVTEVRIKTEPSSPLSDPSDIIRVTVGDAATTAAASSSSVTRDLSLKTEDDQKDMSRLPAKRRFQADRRLPFKKLKVNEHGSPVSEDNFEEGSSPTLLDADFPDSDLNKDEFGELEGTRPNKKFKCKHCLKIFRSTAGLHRHVNMYHNPEKPYACDICHKRFHTNFKVWTHCQTQHGIVKNPSPASSSHAVLDEKFQRKLIDIVREREIKKALIIKLRRGKPGFQGQSSSQAQQVIKRNLRSRAKGAYICTYCGKAYRFLSQFKQHIKMHPGEKPLGVNKVAKPKEHAPLASPVENKEVYQCRLCNAKLSSLLEQGSHERLCRNAAVCPYCSLRFFSPELKQEHESKCEYKKLTCLECMRTFKSSFSIWRHQVEVHNQNNMAPTENFSLPVLDHNGDVTGSSRPQSQPEPNKVNHIVTTKDDNVFSDSSEQVNFDSEDSSCLPEDLSLSKQLKIQVKEEPVEEAEEEAPEASTAPKEAGPSKEASLWPCEKCGKMFTVHKQLERHQELLCSVKPFICHVCNKAFRTNFRLWSHFQSHMSQASEESAHKESEVCPVPTNSPSPPPLPPPPPLPKIQPLEPDSPTGLSENPTPATEKLFVPQESDTLFYHAPPLSAITFKRQFMCKLCHRTFKTAFSLWSHEQTHN

The binders below were run against PrC-CUL3-WT (human) (UniProt Q13618) (assay: affinity purification with mass spectrometry; PrC-CUL3-WT or PrC-CUL3-∆9 precipitated with HPC4-sepharose overnight at 4 °C from lysates of tetracycline-induced Flp-In T-REx 293 cells (50 mM HEPES pH 7.5, 150 mM NaCl, 0.5% Nonidet P-40, 2 mM CaCl2); label-free LC-MS/MS, two independent experiments, empty vector as control).

binding, binds:
B1, B2, B3, B4, B5, B6, B7, B8

What follows are binders tested against PrC-CUL3-∆9 (human) (UniProt Q13618) in the same assay as above.

binding, binds:
B1, B2, B3, B4, B5, B6, B7, B8

Results are given in words; binding and its absence hold for the method and conditions named. Binding seen in cells or lysates may run through a third protein. Here binding means that the protein was enriched with, or labelled near, the bait; the list need not be complete.
